The values that follow come from paper PMC5648194.

The chains behind the UniProt entries cited, without tags or fusion partners.
UniProt P14713: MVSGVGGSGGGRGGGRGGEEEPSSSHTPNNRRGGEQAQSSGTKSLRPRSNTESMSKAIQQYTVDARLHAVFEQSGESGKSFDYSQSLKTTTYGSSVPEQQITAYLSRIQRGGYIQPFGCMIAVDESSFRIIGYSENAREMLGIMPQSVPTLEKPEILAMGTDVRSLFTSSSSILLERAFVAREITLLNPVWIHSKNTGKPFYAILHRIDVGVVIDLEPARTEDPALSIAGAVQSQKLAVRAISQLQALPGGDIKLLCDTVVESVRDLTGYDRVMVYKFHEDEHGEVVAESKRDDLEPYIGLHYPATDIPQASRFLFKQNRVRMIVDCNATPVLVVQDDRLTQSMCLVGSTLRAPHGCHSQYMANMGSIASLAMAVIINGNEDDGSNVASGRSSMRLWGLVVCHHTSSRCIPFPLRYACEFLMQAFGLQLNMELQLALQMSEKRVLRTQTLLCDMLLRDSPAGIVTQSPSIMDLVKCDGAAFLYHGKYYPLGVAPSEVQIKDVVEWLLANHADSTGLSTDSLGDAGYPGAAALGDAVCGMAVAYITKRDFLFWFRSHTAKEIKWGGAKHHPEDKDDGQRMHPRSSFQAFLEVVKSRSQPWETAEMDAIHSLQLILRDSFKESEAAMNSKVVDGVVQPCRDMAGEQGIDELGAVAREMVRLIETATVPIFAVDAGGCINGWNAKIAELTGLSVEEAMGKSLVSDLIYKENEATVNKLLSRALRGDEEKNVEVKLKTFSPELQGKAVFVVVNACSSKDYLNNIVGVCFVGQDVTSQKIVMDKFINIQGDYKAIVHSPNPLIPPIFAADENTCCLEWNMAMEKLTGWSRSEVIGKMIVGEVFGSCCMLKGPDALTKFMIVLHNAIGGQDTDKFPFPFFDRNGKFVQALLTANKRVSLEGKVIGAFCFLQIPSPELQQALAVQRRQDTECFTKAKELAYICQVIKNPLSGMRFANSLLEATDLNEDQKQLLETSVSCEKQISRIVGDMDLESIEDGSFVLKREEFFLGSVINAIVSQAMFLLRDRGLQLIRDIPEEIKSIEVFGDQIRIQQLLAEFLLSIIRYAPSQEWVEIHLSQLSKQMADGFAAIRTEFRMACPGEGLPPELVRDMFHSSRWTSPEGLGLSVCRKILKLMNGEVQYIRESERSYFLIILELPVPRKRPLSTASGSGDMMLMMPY

For experiment [1], the target named is T1, phyA-myc6 (Arabidopsis phytochrome A with six consecutive c-Myc epitopes, expressed from the PHYA promoter) (Arabidopsis (ecotype Col cDNA)) (UniProt P14712).
T1 sequence: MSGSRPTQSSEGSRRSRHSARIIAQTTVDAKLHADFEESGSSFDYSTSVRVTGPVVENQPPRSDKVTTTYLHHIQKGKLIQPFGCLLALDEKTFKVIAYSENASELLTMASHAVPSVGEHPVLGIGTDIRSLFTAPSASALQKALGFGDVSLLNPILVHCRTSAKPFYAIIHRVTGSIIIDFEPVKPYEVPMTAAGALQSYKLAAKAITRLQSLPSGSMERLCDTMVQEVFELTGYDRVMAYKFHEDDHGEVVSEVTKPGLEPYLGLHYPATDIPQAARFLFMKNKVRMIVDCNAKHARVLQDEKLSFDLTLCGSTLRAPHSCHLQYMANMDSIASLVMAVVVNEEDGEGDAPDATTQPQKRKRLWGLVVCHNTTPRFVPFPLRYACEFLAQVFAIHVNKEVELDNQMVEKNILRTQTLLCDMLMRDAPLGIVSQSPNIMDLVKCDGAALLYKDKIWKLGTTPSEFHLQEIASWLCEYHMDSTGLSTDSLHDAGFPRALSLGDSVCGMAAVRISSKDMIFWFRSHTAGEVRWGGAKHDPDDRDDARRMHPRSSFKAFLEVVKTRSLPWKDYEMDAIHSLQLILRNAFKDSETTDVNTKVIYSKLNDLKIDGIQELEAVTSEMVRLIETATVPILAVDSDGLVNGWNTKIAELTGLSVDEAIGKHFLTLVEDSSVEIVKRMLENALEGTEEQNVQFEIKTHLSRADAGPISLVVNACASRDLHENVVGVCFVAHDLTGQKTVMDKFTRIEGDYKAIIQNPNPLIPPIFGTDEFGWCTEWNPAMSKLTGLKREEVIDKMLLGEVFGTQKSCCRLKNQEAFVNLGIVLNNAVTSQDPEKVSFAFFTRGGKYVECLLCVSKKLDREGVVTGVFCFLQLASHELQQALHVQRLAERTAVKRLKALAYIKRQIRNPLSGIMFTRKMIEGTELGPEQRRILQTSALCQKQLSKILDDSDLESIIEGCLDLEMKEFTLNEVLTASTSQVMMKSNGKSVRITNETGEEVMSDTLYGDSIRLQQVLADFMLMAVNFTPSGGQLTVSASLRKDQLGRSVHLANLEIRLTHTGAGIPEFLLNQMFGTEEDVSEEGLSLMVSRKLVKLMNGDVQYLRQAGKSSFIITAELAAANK
Put plainly: co-IP; anti-myc 9E10 and protein A-agarose on seedling extracts in IP buffer (50 mM Tris pH 8.0, 150 mM NaCl, 0.1% IGEPAL CA-630), on ice; blots probed with anti-phyA, -phyB, -phyC, -phyD and -phyE monoclonals; seedlings dark-grown (Fig 5B) or grown 4 days in the dark followed by 24 h continuous FR (S4 Fig).

The target in experiment [2] is T2, phyA-myc1 (Arabidopsis phytochrome A with a single c-Myc epitope, expressed from the PHYA promoter) (Arabidopsis (ecotype Col cDNA)) (UniProt P14712).
T2 sequence: T1 sequence
Described as above.

Results are given in words; binding and its absence hold for the method and conditions named. Binding seen in cells or lysates may run through a third protein. Some entries that bind do so weakly or less than the wild type. Tags and fused reporters may be left off the sequences shown.

As to “endogenous phytochrome B (phyB) (from UniProt P14713 1-1172) (receptor)”, the binding entry in experiment [1] and in experiment [2] was “no binding” in each case.

B1: endogenous phytochrome D (phyD) (receptor, UniProt P42497 1-1164)
chain: MVSGGGSKTSGGEAASSGHRRSRHTSAAEQAQSSANKALRSQNQQPQNHGGGTESTNKAIQQYTVDARLHAVFEQSGESGKSFDYSQSLKTAPYDSSVPEQQITAYLSRIQRGGYTQPFGCLIAVEESTFTIIGYSENAREMLGLMSQSVPSIEDKSEVLTIGTDLRSLFKSSSYLLLERAFVAREITLLNPIWIHSNNTGKPFYAILHRVDVGILIDLEPARTEDPALSIAGAVQSQKLAVRAISHLQSLPSGDIKLLCDTVVESVRDLTGYDRVMVYKFHEDEHGEVVAESKRNDLEPYIGLHYPATDIPQASRFLFKQNRVRMIVDCYASPVRVVQDDRLTQFICLVGSTLRAPHGCHAQYMTNMGSIASLAMAVIINGNEEDGNGVNTGGRNSMRLWGLVVCHHTSARCIPFPLRYACEFLMQAFGLQLNMELQLALQVSEKRVLRMQTLLCDMLLRDSPAGIVTQRPSIMDLVKCNGAAFLYQGKYYPLGVTPTDSQINDIVEWLVANHSDSTGLSTDSLGDAGYPRAAALGDAVCGMAVACITKRDFLFWFRSHTEKEIKWGGAKHHPEDKDDGQRMNPRSSFQTFLEVVKSRCQPWETAEMDAIHSLQLILRDSFKESEAMDSKAAAAGAVQPHGDDMVQQGMQEIGAVAREMVRLIETATVPIFAVDIDGCINGWNAKIAELTGLSVEDAMGKSLVRELIYKEYKETVDRLLSCALKGDEGKNVEVKLKTFGSELQGKAMFVVVNACSSKDYLNNIVGVCFVGQDVTGHKIVMDKFINIQGDYKAIIHSPNPLIPPIFAADENTCCLEWNTAMEKLTGWPRSEVIGKLLVREVFGSYCRLKGPDALTKFMIVLHNAIGGQDTDKFPFPFFDRKGEFIQALLTLNKRVSIDGKIIGAFCFLQIPSPELQQALEVQRRQESEYFSRRKELAYIFQVIKNPLSGLRFTNSLLEDMDLNEDQKQLLETSVSCEKQISKIVGDMDVKSIDDGSFLLERTEFFIGNVTNAVVSQVMLVVRERNLQLIRNIPTEVKSMAVYGDQIRLQQVLAEFLLSIVRYAPMEGSVELHLCPTLNQMADGFSAVRLEFRMACAGEGVPPEKVQDMFHSSRWTSPEGLGLSVCRKILKLMNGGVQYIREFERSYFLIVIELPVPLMMMMPSS
For the molecule B1, the binding entry in experiment [1] and in experiment [2] was “no binding” each time.

B2: endogenous phytochrome E (phyE) (receptor, UniProt P42498 1-1112)
chain: MGFESSSSAASNMKPQPQKSNTAQYSVDAALFADFAQSIYTGKSFNYSKSVISPPNHVPDEHITAYLSNIQRGGLVQPFGCLIAVEEPSFRILGLSDNSSDFLGLLSLPSTSHSGEFDKVKGLIGIDARTLFTPSSGASLSKAASFTEISLLNPVLVHSRTTQKPFYAILHRIDAGIVMDLEPAKSGDPALTLAGAVQSQKLAVRAISRLQSLPGGDIGALCDTVVEDVQRLTGYDRVMVYQFHEDDHGEVVSEIRRSDLEPYLGLHYPATDIPQAARFLFKQNRVRMICDCNATPVKVVQSEELKRPLCLVNSTLRAPHGCHTQYMANMGSVASLALAIVVKGKDSSKLWGLVVGHHCSPRYVPFPLRYACEFLMQAFGLQLQMELQLASQLAEKKAMRTQTLLCDMLLRDTVSAIVTQSPGIMDLVKCDGAALYYKGKCWLVGVTPNESQVKDLVNWLVENHGDDSTGLTTDSLVDAGYPGAISLGDAVCGVAAAGFSSKDYLLWFRSNTASAIKWGGAKHHPKDKDDAGRMHPRSSFTAFLEVAKSRSLPWEISEIDAIHSLRLIMRESFTSSRPVLSGNGVARDANELTSFVCEMVRVIETATAPIFGVDSSGCINGWNKKTAEMTGLLASEAMGKSLADEIVQEESRAALESLLCKALQGEEEKSVMLKLRKFGQNNHPDYSSDVCVLVNSCTSRDYTENIIGVCFVGQDITSEKAITDRFIRLQGDYKTIVQSLNPLIPPIFASDENACCSEWNAAMEKLTGWSKHEVIGKMLPGEVFGVFCKVKCQDSLTKFLISLYQGIAGDNVPESSLVEFFNKEGKYIEASLTANKSTNIEGKVIRCFFFLQIINKESGLSCPELKESAQSLNELTYVRQEIKNPLNGIRFAHKLLESSEISASQRQFLETSDACEKQITTIIESTDLKSIEEGKLQLETEEFRLENILDTIISQVMIILRERNSQLRVEVAEEIKTLPLNGDRVKLQLILADLLRNIVNHAPFPNSWVGISISPGQELSRDNGRYIHLQFRMIHPGKGLPSEMLSDMFETRDGWVTPDGLGLKLSRKLLEQMNGRVSYVREDERCFFQVDLQVKTMLGVESRGTEGSSSIK
Turning to B2, the binding entry in experiment [1] and in experiment [2] was “no binding” in each case.

B3: endogenous phytochrome A (phyA) (receptor, UniProt P14712 1-1122)
chain: T1 sequence
Consider B3, for which the binding entry in experiment [1] was “binds”.

B4: endogenous phytochrome C (phyC) (receptor, UniProt P14714 1-1111)
chain: MSSNTSRSCSTRSRQNSRVSSQVLVDAKLHGNFEESERLFDYSASINLNMPSSSCEIPSSAVSTYLQKIQRGMLIQPFGCLIVVDEKNLKVIAFSENTQEMLGLIPHTVPSMEQREALTIGTDVKSLFLSPGCSALEKAVDFGEISILNPITLHCRSSSKPFYAILHRIEEGLVIDLEPVSPDEVPVTAAGALRSYKLAAKSISRLQALPSGNMLLLCDALVKEVSELTGYDRVMVYKFHEDGHGEVIAECCREDMEPYLGLHYSATDIPQASRFLFMRNKVRMICDCSAVPVKVVQDKSLSQPISLSGSTLRAPHGCHAQYMSNMGSVASLVMSVTINGSDSDEMNRDLQTGRHLWGLVVCHHASPRFVPFPLRYACEFLTQVFGVQINKEAESAVLLKEKRILQTQSVLCDMLFRNAPIGIVTQSPNIMDLVKCDGAALYYRDNLWSLGVTPTETQIRDLIDWVLKSHGGNTGFTTESLMESGYPDASVLGESICGMAAVYISEKDFLFWFRSSTAKQIKWGGARHDPNDRDGKRMHPRSSFKAFMEIVRWKSVPWDDMEMDAINSLQLIIKGSLQEEHSKTVVDVPLVDNRVQKVDELCVIVNEMVRLIDTAAVPIFAVDASGVINGWNSKAAEVTGLAVEQAIGKPVSDLVEDDSVETVKNMLALALEGSEERGAEIRIRAFGPKRKSSPVELVVNTCCSRDMTNNVLGVCFIGQDVTGQKTLTENYSRVKGDYARIMWSPSTLIPPIFITNENGVCSEWNNAMQKLSGIKREEVVNKILLGEVFTTDDYGCCLKDHDTLTKLRIGFNAVISGQKNIEKLLFGFYHRDGSFIEALLSANKRTDIEGKVTGVLCFLQVPSPELQYALQVQQISEHAIACALNKLAYLRHEVKDPEKAISFLQDLLHSSGLSEDQKRLLRTSVLCREQLAKVISDSDIEGIEEGYVELDCSEFGLQESLEAVVKQVMELSIERKVQISCDYPQEVSSMRLYGDNLRLQQILSETLLSSIRFTPALRGLCVSFKVIARIEAIGKRMKRVELEFRIIHPAPGLPEDLVREMFQPLRKGTSREGLGLHITQKLVKLMERGTLRYLRESEMSAFVILTEFPLI
For B4, the binding result in experiment [1] and in experiment [2] was “no binding” in each case.
